Test results published in patent publication US7879865B2, “Treatment of cancer of the brain using histone deacetylase inhibitors” (Sloan-Kettering Institute for Cancer Research, priority 2001, dated 2011).

What was measured:
[1] = tested on: carcinogen-induced (N-methylnitrosourea) mammary tumors; conditions: rats, SAHA in diet over 130 days; cited from earlier work
[2] = tested on: histone deacetylase (HDAC); assay: Acetylated histone levels in mouse tissues after IP injection (Western blot of isolated histones); format: in vivo; conditions: mice, three injections at 1 hour intervals, SAHA 100 mg/kg, pyroxamide 200 mg/kg, anti-AcH3/AcH4 Western blot
Description: FIG. 1 is a scan of a Western blot and Coomassie stained gel indicating levels of acetylated histone (αAcH3) at the indicated timepoints following treatment with vehicle (DMSO) or three doses of SAHA (100 mg/kg/hr).
FIG. […]
Mice (2 mice per condition) were injected by intraperitoneal injection (IP) with either SAHA (100 mg/kg), pyroxamide (200 mg/kg), or vehicle (dimethylsulfoxide). Each mouse was administered three injections at the indicated dose at 1 hour intervals. After the final IP injection tissues (brain, spleen or liver) were isolated at the times indicated. Histones were isolated from tissues essentially as described by Yoshida et al., (1990) J. Biol. Chem. 265:17174-17179. Equal amounts of histones (1 μg) were electrophoresed on 15% SDS-polyacrylamide gels and transferred to Hybond-P filters (Amersham). Filters were blocked with 3% milk and probed with a rabbit purified polyclonal anti-acetylated histone H4 antibody (αAc-H4) and anti-acetylated histone H3 antibody (αAc-H3) (Upstate Biotechnology, Inc.). Levels of acetylated histone were visualized using a horseradish peroxidase-conjugated goat anti-rabbit antibody (1:5000) and the SuperSignal chemiluminescent substrate (Pierce). As a loading control for the histone proteins, parallel gels were run and stained with Coomassie Blue (CB).

tumor growth = conditions: rodents; cited from earlier work

For O=C(CCCCCCC(=O)Nc1ccccc1)NO [SAHA, suberoylanilide hydroxamic acid], the “inhibition of development and continued growth of mammary tumors” value [1] is given as “effective at inhibiting the development and continued growth of carcinogen-induced (N-methylnitrosourea) mammary tumors in rats”, the “inhibition of HDAC activity / accumulation of acetylated histones in the brain” value [2] is given as “significantly inhibit HDAC activity causing the accumulation of acetylated histones in the brain” and the “inhibition of tumor growth” value (tumor growth) is given as “inhibits tumor growth in rodents”.
